Reference: paper PMC6691379
These are yes or no findings as the source states them, for the method shown. In cells and extracts the contact can be indirect. Some entries that bind do so weakly or less than the wild type.

Protein sequences, listed by entry. Tags and fused reporters are not part of them.
UniProt P35222: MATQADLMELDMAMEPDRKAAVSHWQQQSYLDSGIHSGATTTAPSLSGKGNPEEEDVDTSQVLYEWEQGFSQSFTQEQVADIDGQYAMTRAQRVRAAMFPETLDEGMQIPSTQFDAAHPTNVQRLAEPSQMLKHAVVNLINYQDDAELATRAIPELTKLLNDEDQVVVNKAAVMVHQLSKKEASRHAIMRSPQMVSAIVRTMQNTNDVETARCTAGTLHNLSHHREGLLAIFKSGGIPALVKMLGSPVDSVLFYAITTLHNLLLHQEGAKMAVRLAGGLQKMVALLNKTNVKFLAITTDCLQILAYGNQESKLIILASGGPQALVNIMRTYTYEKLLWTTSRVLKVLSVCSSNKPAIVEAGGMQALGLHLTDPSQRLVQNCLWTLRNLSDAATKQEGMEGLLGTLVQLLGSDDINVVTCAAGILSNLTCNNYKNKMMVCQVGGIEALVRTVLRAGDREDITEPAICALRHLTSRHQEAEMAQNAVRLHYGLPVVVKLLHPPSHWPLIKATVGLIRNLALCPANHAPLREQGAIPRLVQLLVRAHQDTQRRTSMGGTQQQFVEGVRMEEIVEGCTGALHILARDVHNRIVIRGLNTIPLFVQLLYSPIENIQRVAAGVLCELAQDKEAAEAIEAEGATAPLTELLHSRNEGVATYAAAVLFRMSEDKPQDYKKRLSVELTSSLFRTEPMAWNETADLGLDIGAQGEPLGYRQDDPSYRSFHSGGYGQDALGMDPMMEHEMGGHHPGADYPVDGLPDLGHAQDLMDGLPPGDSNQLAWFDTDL
UniProt Q16665: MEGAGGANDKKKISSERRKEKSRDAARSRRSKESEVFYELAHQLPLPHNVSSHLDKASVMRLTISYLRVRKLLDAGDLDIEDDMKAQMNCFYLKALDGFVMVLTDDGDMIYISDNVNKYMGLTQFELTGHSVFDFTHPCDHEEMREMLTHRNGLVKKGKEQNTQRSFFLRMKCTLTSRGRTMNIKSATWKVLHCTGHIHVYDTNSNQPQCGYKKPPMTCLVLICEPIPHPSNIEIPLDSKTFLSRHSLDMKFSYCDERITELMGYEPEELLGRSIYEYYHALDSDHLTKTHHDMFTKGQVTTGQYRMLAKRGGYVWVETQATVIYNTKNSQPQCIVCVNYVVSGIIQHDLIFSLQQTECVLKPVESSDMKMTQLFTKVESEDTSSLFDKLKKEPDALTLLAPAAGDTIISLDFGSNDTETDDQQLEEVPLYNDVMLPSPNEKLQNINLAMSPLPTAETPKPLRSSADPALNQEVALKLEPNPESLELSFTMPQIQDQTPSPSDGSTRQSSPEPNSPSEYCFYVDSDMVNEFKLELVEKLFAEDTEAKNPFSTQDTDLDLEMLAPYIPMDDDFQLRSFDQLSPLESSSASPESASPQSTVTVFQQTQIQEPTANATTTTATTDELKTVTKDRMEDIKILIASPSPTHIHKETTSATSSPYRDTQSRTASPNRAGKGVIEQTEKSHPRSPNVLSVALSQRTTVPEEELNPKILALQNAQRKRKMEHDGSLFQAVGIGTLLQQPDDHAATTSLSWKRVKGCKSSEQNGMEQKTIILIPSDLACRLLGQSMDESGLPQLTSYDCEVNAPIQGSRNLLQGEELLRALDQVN
UniProt P36402: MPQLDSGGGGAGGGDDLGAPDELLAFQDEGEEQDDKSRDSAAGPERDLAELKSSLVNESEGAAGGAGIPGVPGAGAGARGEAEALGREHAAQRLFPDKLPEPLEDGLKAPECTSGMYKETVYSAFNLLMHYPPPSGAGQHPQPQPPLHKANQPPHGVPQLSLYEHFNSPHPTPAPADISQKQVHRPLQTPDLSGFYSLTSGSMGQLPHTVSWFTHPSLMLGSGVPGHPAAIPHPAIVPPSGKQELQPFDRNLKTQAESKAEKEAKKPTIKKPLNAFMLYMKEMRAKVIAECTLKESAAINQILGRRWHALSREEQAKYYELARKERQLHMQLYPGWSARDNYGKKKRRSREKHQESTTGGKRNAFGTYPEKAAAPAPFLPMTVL

Key:
[1] = target: β-catenin (human (endogenous in primary GBM cells)) (UniProt P35222); assay: co-IP; lysates of primary GBM cells treated or not with Wnt3a (30 ng/ml) in hypoxia (2% O2) or normoxia (20% O2); lysis buffer with Chapso 1%; IP with anti-β-catenin or anti-HIF-1α and protein A/G microbeads, irrelevant IgGs as control; Western blot; for the HIF-1α IP only hypoxic cells are shown
[2] = target: Hypoxia Inducible Factor (HIF)-1α (human (endogenous in primary GBM cells)) (UniProt Q16665); assay: as above

Row | Substance | binding [1] | binding [2]
1 | Hypoxia Inducible Factor (HIF)-1α (from UniProt Q16665 1-826) | binds | –
2 | TCF1 (from UniProt P36402 1-384) | binds | binds
